Compound in this experiment: c1cn2cc(-c3ccc4cn[nH]c4c3)nc(Nc3ccc(N4CCOCC4)cc3)c2n1 [entospletinib]
Briefly: log2 fold change, soluble protein after heating vs DMSO (PISA); higher = thermal stabilisation; K562 cells, 10 uM, 30 min; active = over 0.2 and 3.5 SD of the protein, either way, in both replicates (recomputed). The method, boiled down:
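Thermal stability values are relative to control samples and come from duplicates. They are expressed as log2 fold changes. For measurement, K562 cells (2×10^6 cells/mL) received 10 μM compound for 30 min, and aliquots were heated for 3 min over 48°C-58°C, pooled, and extracted at 4°C in PBS with 0.5% NP-40. Soluble protein, the supernatant after 21,000xg for 90 min, was quantified by TMTpro 16plex LC-MS/MS with equalised channel sums.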

Sequences of proteins named here, by UniProt entry; tags and fusion partners are left off. A change or cut given only in a name is not applied to a line headed by its entry.
UniProt Q86U90: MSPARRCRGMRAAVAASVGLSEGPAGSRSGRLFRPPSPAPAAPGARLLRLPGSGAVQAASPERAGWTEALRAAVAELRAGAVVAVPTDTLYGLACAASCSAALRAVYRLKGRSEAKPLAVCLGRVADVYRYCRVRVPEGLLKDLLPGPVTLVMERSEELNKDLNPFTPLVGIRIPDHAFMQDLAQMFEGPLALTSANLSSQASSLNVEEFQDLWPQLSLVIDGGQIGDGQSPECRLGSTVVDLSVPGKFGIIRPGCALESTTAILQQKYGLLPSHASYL
UniProt Q7Z739: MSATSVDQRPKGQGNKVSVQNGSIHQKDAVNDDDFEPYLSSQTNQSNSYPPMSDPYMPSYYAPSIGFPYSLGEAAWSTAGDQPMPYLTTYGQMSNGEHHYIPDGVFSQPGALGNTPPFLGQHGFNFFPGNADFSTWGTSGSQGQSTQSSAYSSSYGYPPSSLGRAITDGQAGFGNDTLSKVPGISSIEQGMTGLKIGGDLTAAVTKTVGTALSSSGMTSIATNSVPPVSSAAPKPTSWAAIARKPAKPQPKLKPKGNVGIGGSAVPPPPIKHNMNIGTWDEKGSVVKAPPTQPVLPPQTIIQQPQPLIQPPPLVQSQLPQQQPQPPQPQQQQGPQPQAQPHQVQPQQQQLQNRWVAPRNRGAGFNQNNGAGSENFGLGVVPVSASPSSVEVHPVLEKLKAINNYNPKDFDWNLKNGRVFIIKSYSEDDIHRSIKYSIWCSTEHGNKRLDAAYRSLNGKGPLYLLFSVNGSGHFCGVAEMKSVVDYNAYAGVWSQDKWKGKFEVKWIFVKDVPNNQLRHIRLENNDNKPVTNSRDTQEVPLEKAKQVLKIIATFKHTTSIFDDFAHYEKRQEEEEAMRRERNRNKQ
UniProt O15498: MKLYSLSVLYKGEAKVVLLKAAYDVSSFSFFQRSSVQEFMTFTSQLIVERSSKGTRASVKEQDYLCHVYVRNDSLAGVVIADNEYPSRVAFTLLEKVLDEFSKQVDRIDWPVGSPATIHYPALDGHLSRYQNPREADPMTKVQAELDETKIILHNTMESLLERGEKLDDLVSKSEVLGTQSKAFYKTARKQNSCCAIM
UniProt Q9C0E2: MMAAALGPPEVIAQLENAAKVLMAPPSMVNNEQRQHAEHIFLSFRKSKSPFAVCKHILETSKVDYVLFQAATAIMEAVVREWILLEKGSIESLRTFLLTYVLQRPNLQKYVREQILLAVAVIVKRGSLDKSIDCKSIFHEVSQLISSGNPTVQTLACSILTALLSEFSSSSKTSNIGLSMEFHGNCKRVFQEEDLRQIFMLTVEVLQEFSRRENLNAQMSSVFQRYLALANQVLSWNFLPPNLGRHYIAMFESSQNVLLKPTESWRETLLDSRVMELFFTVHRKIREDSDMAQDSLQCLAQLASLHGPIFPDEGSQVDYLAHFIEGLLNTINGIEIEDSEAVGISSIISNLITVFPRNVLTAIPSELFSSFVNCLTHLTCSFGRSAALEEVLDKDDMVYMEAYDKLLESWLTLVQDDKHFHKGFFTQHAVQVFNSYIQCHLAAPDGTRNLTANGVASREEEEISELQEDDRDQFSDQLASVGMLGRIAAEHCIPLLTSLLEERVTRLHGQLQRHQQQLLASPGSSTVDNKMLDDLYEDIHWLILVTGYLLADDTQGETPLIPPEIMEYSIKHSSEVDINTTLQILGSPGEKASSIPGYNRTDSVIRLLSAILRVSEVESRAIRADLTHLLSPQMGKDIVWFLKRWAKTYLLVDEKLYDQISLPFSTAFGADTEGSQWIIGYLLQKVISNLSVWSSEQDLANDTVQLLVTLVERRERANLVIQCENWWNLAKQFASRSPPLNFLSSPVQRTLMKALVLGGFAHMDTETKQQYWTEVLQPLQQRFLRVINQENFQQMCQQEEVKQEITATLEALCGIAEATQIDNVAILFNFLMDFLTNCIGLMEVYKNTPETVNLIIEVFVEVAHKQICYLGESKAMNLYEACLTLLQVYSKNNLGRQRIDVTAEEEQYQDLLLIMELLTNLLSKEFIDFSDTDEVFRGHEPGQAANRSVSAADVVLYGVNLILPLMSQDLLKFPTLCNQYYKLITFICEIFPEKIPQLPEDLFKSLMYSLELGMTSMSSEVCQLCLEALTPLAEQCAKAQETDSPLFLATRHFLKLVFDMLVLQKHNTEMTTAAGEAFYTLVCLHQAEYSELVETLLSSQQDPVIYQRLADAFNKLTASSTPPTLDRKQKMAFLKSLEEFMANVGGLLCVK
UniProt Q9NUD5: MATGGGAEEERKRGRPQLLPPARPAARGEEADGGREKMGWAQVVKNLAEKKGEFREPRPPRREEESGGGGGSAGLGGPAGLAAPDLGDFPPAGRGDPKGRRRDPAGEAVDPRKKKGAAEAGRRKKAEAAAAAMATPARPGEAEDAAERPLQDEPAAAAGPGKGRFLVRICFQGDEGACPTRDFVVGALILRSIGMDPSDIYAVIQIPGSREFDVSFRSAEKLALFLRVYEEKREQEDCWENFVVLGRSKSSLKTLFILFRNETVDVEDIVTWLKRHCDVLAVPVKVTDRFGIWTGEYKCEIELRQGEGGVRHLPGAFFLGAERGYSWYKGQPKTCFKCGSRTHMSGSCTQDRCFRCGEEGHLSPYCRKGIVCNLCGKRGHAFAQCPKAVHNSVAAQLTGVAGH
UniProt Q9H6S0: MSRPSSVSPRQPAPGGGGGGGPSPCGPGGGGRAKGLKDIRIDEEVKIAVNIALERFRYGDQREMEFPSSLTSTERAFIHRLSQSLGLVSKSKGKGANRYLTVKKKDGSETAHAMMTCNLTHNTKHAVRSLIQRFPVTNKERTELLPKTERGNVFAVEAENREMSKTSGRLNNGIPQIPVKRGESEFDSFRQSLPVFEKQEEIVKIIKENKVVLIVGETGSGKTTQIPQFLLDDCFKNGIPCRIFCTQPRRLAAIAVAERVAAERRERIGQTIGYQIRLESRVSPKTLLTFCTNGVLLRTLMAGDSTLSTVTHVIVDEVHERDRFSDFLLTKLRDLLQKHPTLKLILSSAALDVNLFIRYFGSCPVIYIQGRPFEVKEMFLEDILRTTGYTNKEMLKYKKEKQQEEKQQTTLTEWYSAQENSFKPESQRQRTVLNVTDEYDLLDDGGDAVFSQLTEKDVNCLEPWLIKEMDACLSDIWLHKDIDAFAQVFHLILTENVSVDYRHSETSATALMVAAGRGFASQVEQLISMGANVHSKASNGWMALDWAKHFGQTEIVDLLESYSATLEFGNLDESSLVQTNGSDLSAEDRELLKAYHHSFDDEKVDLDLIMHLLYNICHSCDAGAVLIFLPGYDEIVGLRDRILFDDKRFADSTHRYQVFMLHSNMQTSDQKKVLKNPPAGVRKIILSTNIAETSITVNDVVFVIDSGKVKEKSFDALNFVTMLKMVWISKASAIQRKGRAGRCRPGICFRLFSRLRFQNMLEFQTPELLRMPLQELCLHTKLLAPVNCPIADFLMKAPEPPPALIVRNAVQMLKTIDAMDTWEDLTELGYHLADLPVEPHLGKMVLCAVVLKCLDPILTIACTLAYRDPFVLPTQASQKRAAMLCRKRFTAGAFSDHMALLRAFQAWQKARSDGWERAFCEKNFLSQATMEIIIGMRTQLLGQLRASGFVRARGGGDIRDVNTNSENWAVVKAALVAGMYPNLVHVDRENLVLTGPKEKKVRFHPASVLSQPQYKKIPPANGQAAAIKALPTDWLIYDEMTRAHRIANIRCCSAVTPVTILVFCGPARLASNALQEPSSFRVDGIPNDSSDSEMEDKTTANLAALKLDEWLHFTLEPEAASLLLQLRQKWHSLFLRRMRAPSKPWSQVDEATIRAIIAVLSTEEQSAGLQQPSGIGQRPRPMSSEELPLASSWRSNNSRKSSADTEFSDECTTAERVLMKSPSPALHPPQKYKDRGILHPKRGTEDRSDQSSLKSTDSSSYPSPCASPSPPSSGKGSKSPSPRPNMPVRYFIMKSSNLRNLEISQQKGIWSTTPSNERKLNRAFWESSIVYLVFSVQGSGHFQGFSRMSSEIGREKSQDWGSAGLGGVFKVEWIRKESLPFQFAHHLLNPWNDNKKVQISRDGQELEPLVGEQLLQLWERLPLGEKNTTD
UniProt Q9HBF4: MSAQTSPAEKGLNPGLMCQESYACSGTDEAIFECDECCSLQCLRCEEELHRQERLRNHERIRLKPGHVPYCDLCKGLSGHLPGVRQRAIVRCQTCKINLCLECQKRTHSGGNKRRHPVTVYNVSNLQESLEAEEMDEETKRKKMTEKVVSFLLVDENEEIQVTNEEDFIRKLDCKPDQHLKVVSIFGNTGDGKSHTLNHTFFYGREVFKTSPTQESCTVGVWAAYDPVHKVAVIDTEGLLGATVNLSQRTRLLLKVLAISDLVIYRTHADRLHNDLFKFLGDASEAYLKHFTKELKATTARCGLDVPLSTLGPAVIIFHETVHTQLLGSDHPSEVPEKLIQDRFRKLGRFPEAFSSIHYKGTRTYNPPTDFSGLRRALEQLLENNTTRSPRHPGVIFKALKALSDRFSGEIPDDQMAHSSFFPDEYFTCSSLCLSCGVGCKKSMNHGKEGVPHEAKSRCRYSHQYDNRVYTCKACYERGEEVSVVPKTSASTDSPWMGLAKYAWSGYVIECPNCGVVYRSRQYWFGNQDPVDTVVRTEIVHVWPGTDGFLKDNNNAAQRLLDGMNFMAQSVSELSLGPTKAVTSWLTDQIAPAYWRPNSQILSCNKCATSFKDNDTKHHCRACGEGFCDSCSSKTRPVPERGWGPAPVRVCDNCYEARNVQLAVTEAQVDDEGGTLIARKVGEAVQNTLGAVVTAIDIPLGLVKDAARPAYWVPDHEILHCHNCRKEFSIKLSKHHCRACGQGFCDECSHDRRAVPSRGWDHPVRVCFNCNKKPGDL
UniProt O95405: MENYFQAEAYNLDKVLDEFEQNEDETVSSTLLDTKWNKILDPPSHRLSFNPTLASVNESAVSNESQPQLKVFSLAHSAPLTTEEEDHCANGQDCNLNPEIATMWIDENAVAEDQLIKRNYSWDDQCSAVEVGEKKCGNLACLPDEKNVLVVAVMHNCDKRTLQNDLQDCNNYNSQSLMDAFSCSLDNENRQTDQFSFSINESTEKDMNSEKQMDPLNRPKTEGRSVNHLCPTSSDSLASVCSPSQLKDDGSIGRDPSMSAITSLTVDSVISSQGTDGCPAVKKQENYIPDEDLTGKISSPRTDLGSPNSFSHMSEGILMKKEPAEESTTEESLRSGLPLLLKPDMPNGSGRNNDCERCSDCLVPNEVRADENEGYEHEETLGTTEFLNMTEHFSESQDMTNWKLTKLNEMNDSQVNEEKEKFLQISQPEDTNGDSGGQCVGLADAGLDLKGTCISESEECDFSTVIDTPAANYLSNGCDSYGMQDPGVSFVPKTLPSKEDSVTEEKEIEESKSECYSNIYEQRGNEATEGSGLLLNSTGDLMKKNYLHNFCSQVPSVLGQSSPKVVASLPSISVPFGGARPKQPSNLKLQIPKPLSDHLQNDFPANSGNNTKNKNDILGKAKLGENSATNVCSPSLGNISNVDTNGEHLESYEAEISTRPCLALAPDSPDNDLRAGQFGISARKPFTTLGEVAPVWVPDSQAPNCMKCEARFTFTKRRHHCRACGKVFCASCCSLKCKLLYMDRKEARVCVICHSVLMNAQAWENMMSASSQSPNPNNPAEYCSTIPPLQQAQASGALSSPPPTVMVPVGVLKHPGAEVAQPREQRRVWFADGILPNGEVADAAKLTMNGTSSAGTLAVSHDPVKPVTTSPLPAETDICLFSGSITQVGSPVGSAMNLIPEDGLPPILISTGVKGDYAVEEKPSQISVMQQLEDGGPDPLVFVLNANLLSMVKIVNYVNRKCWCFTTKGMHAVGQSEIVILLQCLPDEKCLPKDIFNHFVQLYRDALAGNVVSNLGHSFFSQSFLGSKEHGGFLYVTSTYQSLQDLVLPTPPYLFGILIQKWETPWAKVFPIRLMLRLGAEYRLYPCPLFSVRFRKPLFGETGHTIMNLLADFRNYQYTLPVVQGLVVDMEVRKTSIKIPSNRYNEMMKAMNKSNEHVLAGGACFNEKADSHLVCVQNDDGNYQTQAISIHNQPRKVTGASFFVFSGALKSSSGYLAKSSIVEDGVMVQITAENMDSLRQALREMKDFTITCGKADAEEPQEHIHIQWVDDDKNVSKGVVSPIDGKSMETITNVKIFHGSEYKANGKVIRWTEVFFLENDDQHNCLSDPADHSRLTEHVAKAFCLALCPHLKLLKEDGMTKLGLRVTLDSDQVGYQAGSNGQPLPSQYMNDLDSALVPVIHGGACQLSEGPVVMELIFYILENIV
UniProt Q9BW85: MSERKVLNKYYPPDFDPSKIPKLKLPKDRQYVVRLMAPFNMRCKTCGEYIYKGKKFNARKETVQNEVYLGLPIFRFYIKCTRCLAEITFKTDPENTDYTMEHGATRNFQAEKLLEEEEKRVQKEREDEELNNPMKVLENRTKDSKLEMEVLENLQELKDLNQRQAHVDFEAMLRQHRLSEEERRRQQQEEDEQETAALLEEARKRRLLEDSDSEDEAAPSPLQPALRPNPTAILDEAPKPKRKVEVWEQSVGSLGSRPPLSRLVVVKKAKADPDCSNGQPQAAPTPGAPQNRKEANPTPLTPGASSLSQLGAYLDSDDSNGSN

The other results are listed elsewhere or left out.

Consider ZC3H7B (UniProt Q9UGR2), for which the log2 fold change is inactive: 0.071.

In the case of YAF2 isoform 5 (UniProt Q8IY57), the log2 fold change was inactive: -0.189.

As to ZFYVE19 (UniProt Q96K21), the log2 fold change was inactive: 0.013.

As to YWHAE (UniProt P62258), the log2 fold change is inactive: 0.004.

Turning to YBX3 isoform 2 (UniProt P16989), the log2 fold change was inactive: 0.092.

Turning to ZBTB8OS (UniProt Q8IWT0), the log2 fold change was inactive: 0.124.

For YRDC (UniProt Q86U90), the log2 fold change was inactive: -0.02.

For the target YTHDF3 (UniProt Q7Z739), the log2 fold change was inactive: 0.027.

With ZNF207 isoform 2 (UniProt O43670), the log2 fold change is inactive: -0.155.

For YKT6 (UniProt O15498), the log2 fold change was inactive: 0.028.

ZNF106 (UniProt Q9H2Y7): the log2 fold change is inactive: 0.031.

Take ZBTB33 (UniProt Q86T24): the log2 fold change is inactive: -0.171.

Take ZMYND8 isoform 19 (UniProt Q9ULU4): the log2 fold change was inactive: 0.226.

As for ZDHHC14 (UniProt Q8IZN3), the log2 fold change is inactive: -0.185.

Turning to XPO4 (UniProt Q9C0E2), the log2 fold change is inactive: 0.021.

For ZCRB1 (UniProt Q8TBF4), the log2 fold change is inactive: 0.094.

For the target ZMYM4 (UniProt Q5VZL5), the log2 fold change is inactive: -0.179.

Turning to ZDHHC2 (UniProt Q9UIJ5), the log2 fold change was inactive: -0.092.

Regarding ZG16B (UniProt Q96DA0), the log2 fold change was inactive: -0.313.

As to ZBTB3 (UniProt Q9H5J0), the log2 fold change was inactive: 0.135.

On to ZDHHC3 isoform 2 (UniProt Q9NYG2), for which the log2 fold change is inactive: -0.021.

For XPC (UniProt Q01831), the log2 fold change is inactive: 0.107.

Consider XRCC3 (UniProt O43542), for which the log2 fold change is inactive: -0.156.

XIRP2 isoform 8 (UniProt A4UGR9): the log2 fold change is inactive: -0.051.

As for YDJC (UniProt A8MPS7), the log2 fold change was inactive: 0.078.

With ZFPM1 (UniProt Q8IX07), the log2 fold change was inactive: 0.04.

With ZCCHC8 (UniProt Q6NZY4), the log2 fold change was inactive: 0.011.

In the case of ZCCHC3 (UniProt Q9NUD5), the log2 fold change is inactive: 0.15.

Regarding YTHDC2 (UniProt Q9H6S0), the log2 fold change is inactive: 0.359.

In the case of XK (UniProt P51811), the log2 fold change is inactive: 0.047.

In the case of ZMIZ1 (UniProt Q9ULJ6), the log2 fold change was inactive: -0.069.

ZDHHC18 (UniProt Q9NUE0): the log2 fold change is inactive: 0.185.

For ZFYVE1 (UniProt Q9HBF4), the log2 fold change was inactive: -0.063.

In the case of ZBTB10 (UniProt Q96DT7), the log2 fold change is inactive: 0.02.

Regarding ZC3H4 (UniProt Q9UPT8), the log2 fold change was inactive: 0.094.

For the target XPR1 (UniProt Q9UBH6), the log2 fold change was inactive: -0.025.

Consider ZC3H13 (UniProt Q5T200), for which the log2 fold change was inactive: 0.111.

Take ZC3H14 (UniProt Q6PJT7): the log2 fold change is inactive: -0.046.

Consider ZFC3H1 (UniProt O60293), for which the log2 fold change is inactive: 0.101.

Take XRN1 (UniProt Q8IZH2): the log2 fold change was inactive: 0.236.

Consider ZFAND2B (UniProt Q8WV99), for which the log2 fold change is inactive: -0.098.

ZNF207 isoform 4 (UniProt O43670): the log2 fold change is inactive: -0.045.

On to YARS2 (UniProt Q9Y2Z4), for which the log2 fold change was inactive: 0.024.

For ZC3HAV1 (UniProt Q7Z2W4), the log2 fold change is inactive: 0.252.

Turning to ZC2HC1A (UniProt Q96GY0), the log2 fold change is inactive: 0.06.

Take YIF1B (UniProt Q5BJH7): the log2 fold change was inactive: 0.042.

Turning to YBX3 (UniProt P16989), the log2 fold change was inactive: 0.195.

As for YWHAG (UniProt P61981), the log2 fold change was inactive: 0.001.

On to ZBTB24 (UniProt O43167), for which the log2 fold change is inactive: -0.084.

Regarding ZBTB7B isoform 2 (UniProt O15156), the log2 fold change is inactive: 0.22.

As to ZC3H15 (UniProt Q8WU90), the log2 fold change was inactive: 0.027.

On to ZFAND1 (UniProt Q8TCF1), for which the log2 fold change was inactive: -0.058.

Regarding XPO7 (UniProt E7ESC6), the log2 fold change is inactive: 0.003.

Consider ZFYVE9 (UniProt O95405), for which the log2 fold change was inactive: 0.218.

For the target YTHDF2 (UniProt Q9Y5A9), the log2 fold change was inactive: 0.035.

Turning to YJU2 (UniProt Q9BW85), the log2 fold change was inactive: -0.034.

Regarding ZFR (UniProt Q96KR1), the log2 fold change was inactive: -0.031.

Turning to XP32 (UniProt Q5T750), the log2 fold change is inactive: -0.406.

Turning to ZMPSTE24 (UniProt O75844), the log2 fold change is inactive: -0.007.

Turning to ZNF24 (UniProt P17028), the log2 fold change is inactive: 0.072.

As to ZMIZ2 (UniProt Q8NF64), the log2 fold change is inactive: 0.019.

Take ZFYVE16 (UniProt Q7Z3T8): the log2 fold change is inactive: 0.03.

ZC3H11A (UniProt O75152): the log2 fold change is inactive: -0.176.

Regarding YIPF3 (UniProt Q9GZM5), the log2 fold change is inactive: 0.028.

Turning to ZKSCAN8 (UniProt Q15776), the log2 fold change was inactive: 0.14.

Regarding YARS (UniProt P54577), the log2 fold change was inactive: 0.028.

For the target ZFAND3 (UniProt Q9H8U3), the log2 fold change was inactive: 0.003.

Take YIPF1 (UniProt Q9Y548): the log2 fold change was inactive: -0.014.

Consider ZBTB7A (UniProt O95365), for which the log2 fold change was inactive: -0.128.

Consider ZDHHC16 (UniProt Q969W1), for which the log2 fold change was inactive: 0.132.

With XXYLT1 (UniProt Q8NBI6), the log2 fold change is inactive: -0.013.

On to ZDHHC13 (UniProt Q8IUH4), for which the log2 fold change was inactive: 0.038.

As for ZFYVE27 isoform 2 (UniProt Q5T4F4), the log2 fold change is inactive: 0.084.

As to ZFYVE21 isoform 2 (UniProt Q9BQ24), the log2 fold change was inactive: 0.136.

In the case of XRN2 (UniProt Q9H0D6), the log2 fold change was inactive: -0.038.

With YEATS4 (UniProt O95619), the log2 fold change was inactive: 0.028.

Take YME1L1 (UniProt Q96TA2): the log2 fold change is inactive: -0.048.

Turning to XRCC4 (UniProt Q13426), the log2 fold change was inactive: -0.031.

ZEB1 isoform 2 (UniProt P37275): the log2 fold change is inactive: -0.106.

Regarding YWHAH (UniProt Q04917), the log2 fold change is inactive: 0.003.

(Values after the supplement of paper PMC10849652.)
